From publication PMC8184213 come the findings set out here.

The target of assay [1] is sarco(endo)plasmic reticulum Ca^2+-ATPase SERCA1a (rabbit (Oryctolagus cuniculus)). Description: oriented-sample solid-state NMR (2D [15N-1H] SE-SAMPI4); SERCA and 15N-labelled PLN or pPLN co-reconstituted in aligned DMPC/POPC/PE-DTPA/DHPC bicelles (q = 4), lipid-to-complex 2000:1, Yb^3+ doped; 20 mM HEPES, 100 mM KCl, 5 mM MgCl2, 2 mM DTT, 2.5% glycerol, pH 7.0, 5 mM CaCl2 (E1 state); 25°C; both purified.

Assay [2] shares this target. The experiment in a line: oriented-sample solid-state NMR (2D [15N-1H] SE-SAMPI4); SERCA and 15N-labelled PLN or pPLN co-reconstituted in aligned DMPC/POPC/PE-DTPA/DHPC bicelles (q = 4), lipid-to-complex 2000:1, Yb^3+ doped; 20 mM HEPES, 100 mM KCl, 5 mM MgCl2, 2 mM DTT, 2.5% glycerol, pH 7.0, 4 mM EGTA (E2 state, Ca^2+-free); 25°C; both purified.

Results are given in words; binding and its absence hold for the method and conditions named. Binding calls can cover weak binding; strength is not graded here.

B1: PLN^AFA, cysteine-null monomeric mutant of phospholamban (Cys36Ala, Cys41Phe, Cys46Ala) (protein, UniProt P61015 1-52)
chain: MEKVQYLTRSAIRRASTIEMPQQARQNLQNLFINFALILIFLLLIAIIVMLL
Consider B1, for which the binding entry in assay [1] and in assay [2] was “binds” each time.

B2: pSer16-PLN, PLN^AFA phosphorylated at Ser16 by protein kinase A (protein, UniProt P61015 1-52)
chain: B1 chain
modifications: phosphoserine at 16
Take B2: the binding result in assay [1] and in assay [2] was “binds” throughout.
